Measured values taken from patent publication US20100015169A1, “Tumor Antigens” (GREEN PEPTIDE CO., LTD., priority 2001, published 2010).
Not every detail of the peptide structures is certain; ends, links or a residue may be inferred. No end group written: not given here.

What was measured:
Format in all cases: cell-based, human
[1] = test system: PC93-A24 cells (HLA-A24+ prostate cancer cell); test: IFN-γ production by peptide-stimulated PBMC in reaction to PC93-A24 prostate cancer cells; conditions: for cases with significantly enhanced IFN-γ production in response to PC93-A24 cells: PBMC of HLA-A24+ prostate cancer patients; for cases with significantly enhanced IFN-γ production in response to PC93-A24 cells / IFN-γ production in response to PC93-A24 cells: 10 μg/ml peptide, 12 days; for IFN-γ production in response to PC93-A24 cells: PBMC of an HLA-A24+ healthy subject, with significance (FIG. 7A)
[2] = test system: C1R-A2402 cells (HLA-A24+) pulsed with the same peptide; test: IFN-γ production (ELISA) by peptide-stimulated PBMC in reaction to peptide-pulsed C1R-A2402 cells; induction of HLA-A24-restricted CTL; conditions: for healthy cases in which the peptide enhanced the production of IFN-γ from PBMC: PBMC of HLA-A24+ healthy subjects; for healthy cases in which the peptide enhanced the production of IFN-γ from PBMC / cases in which PBMC incubated with the peptide had enhanced production of IFN-γ: 10 μg/ml peptide; for cases in which PBMC incubated with the peptide had enhanced production of IFN-γ: PBMC of HLA-A24+ prostate cancer patients, 12 days (or 10 days), Examples 4 and 5; for cases in which the peptide enhanced the production of IFN-γ from PBMC / cases with enhanced production of IFN-γ, taken together with the separate cases in Example 1: PBMC of prostate cancer patients; for cases in which the peptide enhanced the production of IFN-γ from PBMC: 10 μM peptide, 10 days, positive = significant, 50 pg/ml NET or more, Example 1; for cases with enhanced production of IFN-γ, taken together with the separate cases in Example 1: pooled Example 1 + Example 4/5
Method: The ability of the synthesized peptide to induce HLA-A24-restricted CTL from the PBMC that was prepared from a prostate cancer patient was examined. The PBMC were prepared from blood by a method of the art. 1×10^5 PBMC were cultured with 10 μM of each peptide in each well of a U-shaped 96-well micro-culture plate (produced by Nunc) to which 200 μl of culture medium (comprising 45% RPMI-1640 culture medium, 45% AIM-V® culture medium (Invitrogen), 100 U/ml of IL-2, 0.1 mM of MEM non-essential amino acid solution (Invitrogen), and 10% FCS) was added, at 37° C. under conditions of 5% CO2-95% air. At 4 days and 7 days of culturing, half of the culture medium was removed and replaced with a culture medium having the aforementioned composition containing the peptide equivalent to the peptide that was added in the beginning. At 10 days of culturing, the cells were collected, washed, and used as effector cells (E).
Meanwhile, each synthesized peptide (10 μM) was incubated with C1R-A2402 cells (HLA-A24^+) for 2 hours at 37° C. under conditions of 5% CO2-95% air, to make the peptide of interest bind to the HLA-A24 molecule expressed on the cell surface. C1R-A2402 cells thus pulsed with each of peptide were used as target cells (T).
The effector cells were equally divided, and mixed with a variety of target cells, followed by incubating for 18 hours at 37° C. under conditions of 5% CO2-95% air. After incubation, 100 μl of supernatant was collected, and the amount of IFN-γ produced was measured by ELISA. In so doing, the effector cells were paired with the target cells in such a way that the peptide used to induce the effector cells and the peptide pulsed to C1R-A2402 cells were the same. In addition, a peptide derived from the human immunodeficiency virus (hereinafter abbreviated as HIV) was used as a control, and the quantity of IFN-γ produced by CTL that recognized C1R-A2402 cells pulsed with the HIV peptide was taken as a background and subtracted from each measurement value. Each measurement value (NET) that has been calculated was statistically processed by the Student's t-test, and those with a P value of 0.05 or below were considered to be significant. In addition, a peptide that enhanced IFN-γ production with significance by 50 pg/ml NET or more was assessed as positive. […]

[3] = test system: HLA-A2- prostate cancer cells PC93; test: IFN-γ production by peptide-stimulated PBMC in response to HLA-A2- prostate cancer cells (control); conditions: PBMC of HLA-A2+ prostate cancer patient 3; HLA-A2- prostate cancer cell
Excerpt: (§1) First, the PBMC derived from two healthy subjects and one prostate cancer patient were stimulated with peptides, as in Example 6, prior to use as effector cells. PC93-A2 cells resulting from the introduction and expression of the HLA-A2 gene in HLA-A2^− prostate cancer cells PC93 by methods known in the art were used as a target cells. In addition, the HLA-A2^− prostate cancer cells were used as controls. A portion of the effector cells was mixed and cultured with target cells. Culturing was performed for 18 hours at 37° C. under conditions of 5% CO2-95% air. After incubation, 100 μl of supernatant was collected, and the amount of IFN-γ produced was measured by ELISA.

[4] = test system: T2 cells (HLA-A2+) pulsed with the same peptide; test: IFN-γ production (ELISA) by peptide-stimulated PBMC in reaction to peptide-pulsed T2 cells; induction of HLA-A2-restricted CTL; conditions: PBMC of HLA-A24+ (so in the source) prostate cancer patients, 10 μM peptide, 15 days; positive = significant, 80 pg/ml NET or more
Method: The ability of the synthesized peptide to induce HLA-A2-restricted CTL from the PBMC prepared from an HLA-A2^+ healthy subject and HLA-A2^+ prostate cancer patient was examined. The PBMC were prepared from blood by a method of the art; 1×10^5 PBMC were incubated with 10 μM of peptides in each well of a U-shaped 96-well micro-culture plate (Nunc) using the identical media to that used in Example 1 at 37° C. under conditions of 5% CO2-95% air. At 5 days and 10 days of culturing, half of culture medium was removed and replaced with a fresh culture medium containing the peptide equivalent to the peptide that was added in the beginning. After collecting the cells at 15 days of culturing, they were washed and used as effector cells. […]
Effector cells and 1×10^4 target cells were mixed at various ratios and incubated for 18 hours at 37° C. under conditions of 5% CO2-95% air. After incubation, 100 μl of supernatant was collected, and the amount of IFN-γ produced was measured by ELISA. […] In addition, an HIV peptide was used as a control, and the quantity of IFN-γ produced by CTL that recognized T2 cells pulsed with the HIV peptide was taken as a background and subtracted from each measurement value. Each measurement value (NET) that has been calculated was statistically processed by the Student's t-test, and those with a P value of 0.05 or below were considered to be significant. […]

[5] = test system: PC93-A2 cells (HLA-A2+ prostate cancer cell); test: IFN-γ production by peptide-stimulated PBMC in response to HLA-A2+ prostate cancer cells; conditions: PBMC of HLA-A2+ prostate cancer patient 3
Excerpt: as §1

[6] = PBMC of HLA-A24+ prostate cancer patient (FIG. 11B)

Sequence	cases with significantly enhanced IFN-γ production in response to PC93-A24 cells [1]	IFN-γ production in response to PC93-A24 cells [1]	healthy cases in which the peptide enhanced the production of IFN-γ from PBMC [2]	cases in which PBMC incubated with the peptide had enhanced production of IFN-γ [2]	cases in which the peptide enhanced the production of IFN-γ from PBMC [2]	cases with enhanced production of IFN-γ, taken together with the separate cases in Example 1 [2]	IFN-γ production [3] [pg/mL]	cases in which the peptide enhanced the production of IFN-γ from PBMC [4]	IFN-γ production [5] [pg/mL]	IFN-γ production of the peptide-induced CTL in the presence of an anti-CD4 antibody or an anti-CD14 antibody [1, 6]	IFN-γ production of the peptide-induced CTL in the presence of an anti-CD8 antibody [1, 6]
HYRKWIKDTI [PSA248-257]	3 out of 4	high levels	1 out of 5	4 out of 7	4 out of 13	8 out of 20					
ALLMAGLAL [PSCA7-15]							490.9 ± 26.2	5 out of 12 cases	633.3 ± 81.7		
CYASGWGSI [PSA152-160]	2 out of 4	high levels	1 out of 5	3 out of 6	2 out of 14	5 out of 20					
TYSVSFDSL [PSM624-632]	5 out of 7		3 out of 5	1 out of 2	5 out of 14	6 out of 16				not inhibited	inhibited
